This passage reports binding results from patent US20150093383A1 (ONO PHARMACEUTICAL, published 2015).

These are yes or no findings as the source states them, for the method shown. In cells and extracts the contact can be indirect. Binding calls can cover weak binding; strength is not graded here.

For the assay, the target named is FcR-hBIR1 (wt) chimeric protein (mouse FcγRIIB / human BIR1 chimera). Put plainly: co-immunoprecipitation with 2.4G2 after crosslinking of the chimera with BCR by intact antibody, Western blotting.

B1: SHIP-1 (enzyme, UniProt Q9ES52 1-1191, looked up)
chain: MPAMVPGWNHGNITRSKAEELLSRAGKDGSFLVRASESIPRAYALCVLFRNCVYTYRILPNEDDKFTVQASEGVPMRFFTKLDQLIDFYKKENMGLVTHLQYPVPLEEEDAIDEAEEDTVESVMSPPELPPRNIPMSAGPSEAKDLPLATENPRAPEVTRLSLSETLFQRLQSMDTSGLPEEHLKAIQDYLSTQLLLDSDFLKTGSSNLPHLKKLMSLLCKELHGEVIRTLPSLESLQRLFDQQLSPGLRPRPQVPGEASPITMVAKLSQLTSLLSSIEDKVKSLLHEGSESTNRRSLIPPVTFEVKSESLGIPQKMHLKVDVESGKLIVKKSKDGSEDKFYSHKKILQLIKSQKFLNKLVILVETEKEKILRKEYVFADSKKREGFCQLLQQMKNKHSEQPEPDMITIFIGTWNMGNAPPPKKITSWFLSKGQGKTRDDSADYIPHDIYVIGTQEDPLGEKEWLELLRHSLQEVTSMTFKTVAIHTLWNIRIVVLAKPEHENRISHICTDNVKTGIANTLGNKGAVGVSFMFNGTSLGFVNSHLTSGSEKKLRRNQNYMNILRFLALGDKKLSPFNITHRFTHLFWLGDLNYRVELPTWEAEAIIQKIKQQQYSDLLAHDQLLLERKDQKVFLHFEEEEITFAPTYRFERLTRDKYAYTKQKATGMKYNLPSWCDRVLWKSYPLVHVVCQSYGSTSDIMTSDHSPVFATFEAGVTSQFVSKNGPGTVDSQGQIEFLACYATLKTKSQTKFYLEFHSSCLESFVKSQEGENEEGSEGELVVRFGETLPKLKPIISDPEYLLDQHILISIKSSDSDESYGEGCIALRLETTEAQHPIYTPLTHHGEMTGHFRGEIKLQTSQGKMREKLYDFVKTERDESSGMKCLKNLTSHDPMRQWEPSGRVPACGVSSLNEMINPNYIGMGPFGQPLHGKSTLSPDQQLTAWSYDQLPKDSSLGPGRGEGPPTPPSQPPLSPKKFSSSTANRGPCPRVQEARPGDLGKVEALLQEDLLLTKPEMFENPLYGSVSSFPKLVPRKEQESPKMLRKEPPPCPDPGISSPSIVLPKAQEVESVKGTSKQAPVPVLGPTPRIRSFTCSSSAEGRMTSGDKSQGKPKASASSQAPVPVKRPVKPSRSEMSQQTTPIPAPRPPLPVKSPAVLQLQHSKGRDYRDNTELPHHGKHRQEEGLLGRTAMQ
As for B1, the binding entry was “binds”.
